## Percent effect of library compounds

Amino acid sequences for entries named in this document (tags omitted). Residues count along the entry.
UniProt I6X8D2, whole entry: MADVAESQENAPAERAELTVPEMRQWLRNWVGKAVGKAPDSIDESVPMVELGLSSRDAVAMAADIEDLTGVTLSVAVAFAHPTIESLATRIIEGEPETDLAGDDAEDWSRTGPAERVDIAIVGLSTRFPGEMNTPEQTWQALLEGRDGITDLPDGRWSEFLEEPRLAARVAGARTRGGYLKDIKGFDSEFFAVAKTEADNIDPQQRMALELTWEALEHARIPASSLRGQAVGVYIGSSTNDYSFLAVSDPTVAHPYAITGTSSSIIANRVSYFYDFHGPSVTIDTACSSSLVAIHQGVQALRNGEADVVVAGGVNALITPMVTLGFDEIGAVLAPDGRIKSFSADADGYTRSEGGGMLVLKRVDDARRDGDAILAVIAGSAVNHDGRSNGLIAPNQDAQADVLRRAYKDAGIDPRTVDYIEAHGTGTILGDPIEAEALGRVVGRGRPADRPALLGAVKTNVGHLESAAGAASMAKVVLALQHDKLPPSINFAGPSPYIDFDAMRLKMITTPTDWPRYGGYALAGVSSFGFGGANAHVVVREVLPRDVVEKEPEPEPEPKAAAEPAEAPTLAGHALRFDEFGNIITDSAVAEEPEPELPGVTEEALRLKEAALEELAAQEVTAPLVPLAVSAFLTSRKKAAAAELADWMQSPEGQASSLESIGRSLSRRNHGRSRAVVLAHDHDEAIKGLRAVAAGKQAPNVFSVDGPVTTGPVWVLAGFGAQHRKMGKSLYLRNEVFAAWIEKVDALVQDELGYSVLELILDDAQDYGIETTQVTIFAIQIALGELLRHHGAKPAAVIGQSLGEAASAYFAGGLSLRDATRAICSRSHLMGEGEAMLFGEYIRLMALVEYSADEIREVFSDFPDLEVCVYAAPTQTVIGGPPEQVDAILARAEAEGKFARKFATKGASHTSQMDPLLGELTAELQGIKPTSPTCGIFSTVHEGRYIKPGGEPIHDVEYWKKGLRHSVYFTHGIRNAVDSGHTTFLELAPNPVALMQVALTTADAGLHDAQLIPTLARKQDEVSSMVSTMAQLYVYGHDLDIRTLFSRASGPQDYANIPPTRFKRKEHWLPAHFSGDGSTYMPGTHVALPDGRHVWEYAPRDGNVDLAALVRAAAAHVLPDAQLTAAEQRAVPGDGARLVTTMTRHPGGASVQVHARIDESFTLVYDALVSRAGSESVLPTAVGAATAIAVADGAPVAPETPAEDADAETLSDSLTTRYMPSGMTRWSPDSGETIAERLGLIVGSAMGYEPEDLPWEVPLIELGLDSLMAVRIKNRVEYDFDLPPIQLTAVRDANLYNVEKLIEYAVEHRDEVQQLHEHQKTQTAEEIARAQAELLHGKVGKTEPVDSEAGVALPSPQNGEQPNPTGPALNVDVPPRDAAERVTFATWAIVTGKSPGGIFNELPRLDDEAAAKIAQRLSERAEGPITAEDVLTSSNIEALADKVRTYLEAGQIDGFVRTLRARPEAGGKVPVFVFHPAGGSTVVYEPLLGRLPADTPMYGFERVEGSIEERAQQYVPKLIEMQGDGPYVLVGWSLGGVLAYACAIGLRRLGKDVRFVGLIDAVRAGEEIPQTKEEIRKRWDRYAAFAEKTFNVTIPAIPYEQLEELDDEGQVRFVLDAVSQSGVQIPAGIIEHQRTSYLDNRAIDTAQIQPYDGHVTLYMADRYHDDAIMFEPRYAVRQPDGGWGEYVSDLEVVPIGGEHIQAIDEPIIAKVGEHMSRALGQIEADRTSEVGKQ
UniProt P9WNZ1, whole entry: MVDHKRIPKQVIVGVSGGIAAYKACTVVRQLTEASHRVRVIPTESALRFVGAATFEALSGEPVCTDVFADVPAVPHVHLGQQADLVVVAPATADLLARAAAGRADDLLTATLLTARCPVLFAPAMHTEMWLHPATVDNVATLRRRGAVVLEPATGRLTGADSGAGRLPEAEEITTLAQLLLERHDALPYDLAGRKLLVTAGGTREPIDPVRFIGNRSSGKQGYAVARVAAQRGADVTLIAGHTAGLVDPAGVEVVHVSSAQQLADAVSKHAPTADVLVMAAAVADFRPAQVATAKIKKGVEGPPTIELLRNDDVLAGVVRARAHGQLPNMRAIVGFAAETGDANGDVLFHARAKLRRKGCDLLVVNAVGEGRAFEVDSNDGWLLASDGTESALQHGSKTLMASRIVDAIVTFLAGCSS
UniProt P9WFT3, whole entry: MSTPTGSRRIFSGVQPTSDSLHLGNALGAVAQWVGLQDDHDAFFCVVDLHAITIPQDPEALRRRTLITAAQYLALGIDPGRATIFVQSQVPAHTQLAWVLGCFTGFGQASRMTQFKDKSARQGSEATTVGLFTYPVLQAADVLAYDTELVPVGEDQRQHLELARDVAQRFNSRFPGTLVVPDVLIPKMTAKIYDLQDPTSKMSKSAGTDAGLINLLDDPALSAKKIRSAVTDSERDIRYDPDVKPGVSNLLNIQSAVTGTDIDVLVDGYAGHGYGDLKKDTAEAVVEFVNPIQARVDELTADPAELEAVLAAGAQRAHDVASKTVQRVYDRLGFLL
UniProt A4I591, 1-473: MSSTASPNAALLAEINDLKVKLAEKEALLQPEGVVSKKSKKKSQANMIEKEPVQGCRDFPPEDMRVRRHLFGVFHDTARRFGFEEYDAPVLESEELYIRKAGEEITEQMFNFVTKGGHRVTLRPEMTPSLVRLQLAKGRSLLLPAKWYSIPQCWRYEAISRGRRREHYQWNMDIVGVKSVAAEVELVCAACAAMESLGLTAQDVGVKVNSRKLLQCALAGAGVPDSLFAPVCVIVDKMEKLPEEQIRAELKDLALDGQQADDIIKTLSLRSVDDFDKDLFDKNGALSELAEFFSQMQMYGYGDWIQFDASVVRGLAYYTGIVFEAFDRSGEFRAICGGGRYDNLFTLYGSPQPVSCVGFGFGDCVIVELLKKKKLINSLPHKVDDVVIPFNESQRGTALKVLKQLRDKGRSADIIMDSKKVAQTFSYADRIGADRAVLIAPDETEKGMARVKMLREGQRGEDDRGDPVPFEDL
UniProt Q4DA54, 1-478: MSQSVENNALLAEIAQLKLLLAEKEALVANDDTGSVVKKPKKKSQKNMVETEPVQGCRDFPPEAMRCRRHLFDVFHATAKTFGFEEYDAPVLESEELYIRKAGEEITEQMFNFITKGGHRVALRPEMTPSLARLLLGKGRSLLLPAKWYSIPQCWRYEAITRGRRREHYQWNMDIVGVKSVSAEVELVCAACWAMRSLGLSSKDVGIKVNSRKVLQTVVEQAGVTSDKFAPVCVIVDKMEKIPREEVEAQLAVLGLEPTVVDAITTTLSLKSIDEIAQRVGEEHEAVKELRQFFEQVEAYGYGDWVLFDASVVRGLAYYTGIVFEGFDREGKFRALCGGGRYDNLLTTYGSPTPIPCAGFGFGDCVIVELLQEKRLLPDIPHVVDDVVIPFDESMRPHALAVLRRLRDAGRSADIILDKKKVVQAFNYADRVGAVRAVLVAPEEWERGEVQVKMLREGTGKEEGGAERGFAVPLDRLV

A: 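Polyketide synthase Pks13, Mycobacterium tuberculosis (UniProt I6X8D2). Enzyme assay of the thioesterase domain of polyketide synthase 13; the read-out is not stated. Compounds at 30 µM. Higher reads as stronger inhibition (inferred from which compounds were picked for retests). About 67,000 compounds were tested under these conditions; 0.46% (about 300) showed 50% or more at least once.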
B: 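Assay of Toxoplasma gondii numbers, read through their beta-galactosidase reporter with a colour substrate. Concentration: 10 µM. The record gives no direction; the compounds picked for IC50 retests had high values, so higher reads as fewer parasites. Size under these conditions: about 67,000 compounds, about 260 of them at 50% or above in at least one test.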
C: 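Coenzyme A biosynthesis protein CoaBC, Mycobacterium tuberculosis (UniProt P9WNZ1). Enzyme assay of CoaBC with a phosphate dye (Biomol Green) read at 650 nm. Compounds at 30 µM. Higher reads as stronger inhibition, judged from the few compounds that gave an IC50. Most strong results did not repeat in a second test. Size under these conditions: about 67,000 compounds, about 40 of them at 50% or above in at least one test.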
D: 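Tryptophan-tRNA ligase, Mycobacterium tuberculosis (UniProt P9WFT3). Enzyme assay of tryptophanyl-tRNA synthetase; the read-out is not stated. Tested at 10 µM. Higher most likely means stronger inhibition; the record gives no direction and few retests gave an IC50. About 65,000 compounds were tested under these conditions; 0.098% (about 64) showed 50% or more at least once.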
E: 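Histidine-tRNA ligase, Leishmania infantum (UniProt A4I591). Enzyme assay of histidyl-tRNA synthetase; the read-out is not stated. Tested at 30 µM. Direction is inferred from retests: higher values go with stronger inhibition. The assay is labelled LdHisRS but filed under L. infantum. Of about 69,000 compounds tested this way, about 410 (0.6%) reached 50% or more in at least one test.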
F: 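Histidine-tRNA ligase, Trypanosoma cruzi CL Brener (UniProt Q4DA54). Enzyme assay of histidyl-tRNA synthetase; the read-out is not stated. Compounds at 30 µM. Direction is inferred from retests: higher values go with stronger inhibition. Size under these conditions: about 69,000 compounds, about 31 of them at 50% or above in at least one test.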

Each number is a percent effect as filed.
The controls that fix the scale are not given in the record; negative values are as filed.
Compounds were drawn at random from those tested, without regard to their results.
Two or more numbers in one place are separate tests of the same structure; such repeats can differ widely.
A dash means the value is not listed here; it may have been measured.

structure,A,B,C,D,E,F
CN(C)C(CNCc1nc(-c2ccsc2)no1)c1ccsc1 (stereo not shown),-8.613,-5.486,-25.83,7.802,2.74,6.349
Cc1cc(Br)c(O)c(-c2nc(N3CCCCC3)sc2C)c1,9.49,-16.8,-1.104,-,12.37,0
CCCn1nc(C)c(CN2CC3(CCOC3)CCC2=O)c1C (stereo not shown),8.381,-7.513,1.106,2.545,12.4,10.71
Cc1noc(C)c1CNCc1ccccc1N(C)C1CCN(C)CC1,-4.2,1.99,2.484,-1.321,0,2.564
Cc1cnn(CC2CCCN2CCCS(C)(=O)=O)c1 (stereo not shown),4.713,0.9705,2.35,-3.993,10.34,6.215
Cc1cc(C(=O)NC2CCc3c(ccc(=O)n3CC3CC3)C2)no1 (stereo not shown),10.96,9.877,2.683,-,11.32,5.556
CCC(Nc1ncccn1)c1ccc(OC)cc1 (stereo not shown),11.97,9.275,0,-5.027,14.47,3.448
O=C(O)C(F)(F)F.O=C(O)C(F)(F)F.c1c(CN2CCCC2)nc2n1CCN(CC1CC1)C2,-,8.505,-,-,-,-
CN(C)C(=O)CN1CCOCC2(C1)CN(c1ncc(F)cn1)CCO2.O=C(O)C(F)(F)F (stereo not shown),-,-3.543,-,-,-,-
Cc1nnc(SCCC(=O)N(C)Cc2ccc(Cl)s2)[nH]1,-24.34,-5.176,-0.8264,-2.034,-9.333,6.358
O=C(NCCc1ccn(-c2ccc(F)cc2)n1)C1CCCO1 (stereo not shown),-3.224,-8.333,-5.868,1.175,11.29,1.031
CSCCCN1CC[C@@H](NC(=O)c2cnccn2)[C@H](O)C1,-11.27,8.425,-6.183,1.006,26.92,2.5
Cc1ccc(CN2C(=O)CCC2C(=O)Nc2cnn(C)c2)o1 (stereo not shown),-15.66,14.8,-10.21,8.75,49.46,8.808
OC[C@H]1CN(Cc2c(Cl)cncc2Cl)C[C@H]1CN1CCOCC1,-23.2,2.593,7.944,-1.954,19.74,1.087
CCCc1cc(C(=O)NCCCC(=O)N2Cc3ccccc3C2)[nH]n1,-1.708,-4.08,1.088,5.142,16.13,7.143
O=C(C1CCCN(Cc2cccc(F)c2)C1)N1CCc2sccc2C1 (stereo not shown),-22.68,-12.02,6.7,1.332,19.15,4.046
CCOCC1CN(C(=O)c2ccco2)Cc2cnn(C)c21 (stereo not shown),-18.08,0.7664,-3.083,-3.635,0,4.762
CC(NC(=O)N(C)Cc1ccncc1)c1cn(-c2ccccc2)nn1 (stereo not shown),-40.69,3.338,-1.241,5.267,10.64,4.046
COc1ccc(C(C)NC(=O)NCCNc2ccccn2)c(OC)c1 (stereo not shown),-19.37,-7.877,-,7.843,12.5,0
O=C(c1ccoc1)N1CCC2(C1)CN(c1nccs1)C2,-17.13,17.75,9.121,-5.533,28.57,4.902
CN1CCN(Cc2cn3c(n2)CN(C(=O)c2cccn2C)CC3)CC1,-16.3,-,-11.29,4.926,16.67,7.463
Cc1c(-c2cccs2)nn2c(O)c3c(nc12)CN(C(=O)C1CC1)C3,-12.21,-23.06,0.6849,-6.034,9.396,2.571
CN(c1ncccc1C#N)C1CCN(Cc2ccncc2)CC1,-10.36,-0.863,-,-2.523,21.13,7.006
CCCC1CN(CCOc2ccccc2)C(=O)c2cccnc2O1 (stereo not shown),-29.21,11.58,0.7264,-,0,1.124
[H][C@]12CC[C@]([H])(CN(c3ncnc4ccsc34)C1)N(C)C2=O,-,3.546,-,-,-,-
COc1ccc2[nH]cc(C(=O)N3C[C@@H](O)[C@H](N4CCCC4)C3)c2c1,-19.12,4.974,2.564,15.85,5.674,4.135
O=C(c1cccnc1)N1CCCC(c2cc(C(F)F)n3ncnc3n2)C1 (stereo not shown),-32.21,-5.83,1.667,0.9197,2.778,-0.5405
CCc1nc(CN2CCCN(CC(=O)Nc3cccnc3)CC2)no1,-10.91,-1.39,-7.991,0.4068,3.306,6.723
CCN(Cc1cnn(C)c1)C[C@H]1CC[C@@H](Cc2ccc(C)nc2)O1,-20.33,0.1836,4.911,-3.818,-3.125,3.867
Cc1nc(C)n(CC2CCCCN2CCc2ccncc2)n1 (stereo not shown),-29.02,18.67,2.558,8.84,-1.835,3.529
[H][C@]12CC[C@]([H])(CN(C(=O)CCc3n[nH]c(C)c3C)C1)N(CCOC)C2=O,-,27.92,-,-,-,-
[H][C@]12CCN(C(=O)Nc3cccc(OC)c3)CC[C@@]1([H])S(=O)(=O)N(C)C2,-,-15.58,-,-,-,-
CCn1cc(C(=O)NCCN2CCCc3ccccc32)c(C)n1,-6.996,-21.25,0.1258,-0.5442,17.7,4.464
CN(C)C(=O)CN1CCc2ncnc(N(C)C)c2CC1,-1.699,-,-0.495,-,11.71,6.63
CCCC(=O)Nc1ccc2c(c1)C1(CCOCC1)CN2CCOC,3.545,-,0.495,-,35.14,14.36
CC1(C)CC(N(Cc2ccccc2)Cc2ncc[nH]2)CC(C)(C)N1.O=C(O)CC(O)(CC(=O)O)C(=O)O,-,15.88,-,-,-,-
CC(C)Oc1ncccc1CNC(=O)c1cc(C2CC2)on1,-26.41,-31.46,8.265,23.73,14.91,2.035
O=C(O)C(F)(F)F.[H][C@@]12CCN(c3ncc(F)cn3)[C@]1([H])CC[C@H](C(=O)NC1CC1)O2,-,-0.4399,-,-,-,-
CCN1CCCC(CN2CCn3nc(CNC(=O)N(C)C)cc3C2)C1 (stereo not shown),-6.201,-3.325,-0.3619,1.087,18.4,4.523
CN1CCN(C(=O)c2ncn3c2CN(C)S(=O)(=O)c2ccccc2-3)CC1.O=C(O)C(F)(F)F,-,-3.455,-,-,-,-
CCN(Cc1ccc(Cl)c(Cl)c1)C(=O)CCn1cncn1,1.139,11.62,-16.98,-2.617,3.297,3.093
Cc1cnn(CC2CCCN2C(=O)c2cccc(-n3cnnn3)c2)c1 (stereo not shown),-24.15,-,3.856,-2.439,-1.124,2.256
Cc1cccc(N(CCC(N)=O)C(=O)c2ccnc(C)n2)c1,-29.89,-1.406,3.659,0.000008,16.67,6.494
Cc1nonc1OCCNC(=O)COc1ccc(F)cc1F,-33.41,14.31,22.82 and 11.86,5.791,19.54,-9.278
CCC(CC)NCC(c1ccccn1)N1CCOCC1 (stereo not shown),2.31,-0.6238,-1.6,-3.488,2.564,6.897
CC(=O)NC(=O)C1(CCCc2ccncc2)CCN1 (stereo not shown),-0.6305,-10.07,0.9804,-,11.46,3.191
O=C1NCCN1C1CCN(Cc2nc(-c3ccccc3)no2)CC1,-1.76,11.87,3.742,4.869,10.43,5.747
O=C(O)C(F)(F)F.O=C(O)C(F)(F)F.[H][C@]12C[C@@H](CN3CCCC3)N(C(C)C)[C@@]1([H])CCN(C(=O)c1ccoc1)C2,-,-2.606,-,-,-,-
COc1ccc2c(c1)OCC(CNC1CCc3ncnn3C1)=C2 (stereo not shown),-6.792,-8.414,5.251,1.924,6.667,6.087
Cc1cc(C)c2c(NCc3nncn3C3CCCCC3)ncnc2n1,-5.866,2.862,3.899,2.721,19.47,7.143
COc1ccccc1CC(C)N(C)S(C)(=O)=O (stereo not shown),3.451,-2.09,9.921,0.8894,9.821,1.724
CCc1cnc(NCC(CC)N2CCOCC2)nc1 (stereo not shown),-19.78,19.85,3.688,1.687,12.5,4.255
COc1cc(OC)cc(N2CCC(NC(=O)c3ccc[nH]3)CC2)c1,-13.54,-1.855,1.623,-2.033,6.612,0

For reference, 5 entries once more:

structure,A,B,C,D,E,F
CCc1cnc(NCC(CC)N2CCOCC2)nc1 (stereo not shown),-19.78,19.85,3.688,1.687,12.5,4.255
CN(C)C(=O)CN1CCc2ncnc(N(C)C)c2CC1,-1.699,-,-0.495,-,11.71,6.63
COc1cc(OC)cc(N2CCC(NC(=O)c3ccc[nH]3)CC2)c1,-13.54,-1.855,1.623,-2.033,6.612,0
CSCCCN1CC[C@@H](NC(=O)c2cnccn2)[C@H](O)C1,-11.27,8.425,-6.183,1.006,26.92,2.5
CCCC(=O)Nc1ccc2c(c1)C1(CCOCC1)CN2CCOC,3.545,-,0.495,-,35.14,14.36

Data taken from ChEMBL document CHEMBL3988442, “University of Dundee, Small-Polar-MMV Screening Library” (2021).